Data source: PubChem BioAssay AID652259 (Drosophila RNAi Screening Center, 2013)

- Purpose: 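Knock-downs that push a Wingless-driven reporter up or down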 (primary screen)
- Cells: Drosophila clone 8 imaginal disc epithelial cells
- Reagent: long dsRNA against Drosophila genes
- Treatment: pathway stimulated by co-transfected Wingless expression plasmid
- Detection: 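Firefly luciferase from a tcf-site Wingless reporter, measured alongside co-transfected Renilla luciferase that tracks transfection; pathway stimulated by a Wingless plasmid; the firefly-to-Renilla ratio is not deposited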
- Scale: firefly reporter light: higher = more Wg reporter light, before normalisation; Renilla control light: higher = more transfected or surviving cells
- Call rule: 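a knock-down is a candidate when at least two out of four statistical tests show it departing from its plate mean; one test alone signals a weak candidate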
- Meaning of the calls: active = candidate regulator (raises or lowers reporter); inactive = not a candidate
The deposit covers about 22,000 reagents; this is a random part of those that have a named target and a result. Over the whole deposit, 233 (1.1%) got an active call. 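Light values are raw, unnormalised plate reads; the ratio scores behind the reporter calls were not deposited.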 A plus sign joins genes that one reagent is predicted to hit. Not stated in the record: the amount of reagent, the time to read-out, the dose of the treatment.

The first 4 records, ahead of the listing:
target gene | amplicon | firefly reporter light, replicate 1 | firefly reporter light, replicate 2 | Renilla control light, replicate 1 | Renilla control light, replicate 2 | activity call
cnk (GeneID 36952) | DRSC07595 | 9927 | – | 2801 | – | inactive
Cln3 (GeneID 39981) | DRSC10520 | 5536 | – | 2341 | – | inactive
yellow-d (GeneID 37703) | DRSC04589 | 3404 | 6332 | 800 | 3178 | inactive
c12.2 (GeneID 53434) | DRSC18751 | 12492 | – | 6427 | – | inactive

Results, from the start:
target gene | amplicon | firefly reporter light, replicate 1 | firefly reporter light, replicate 2 | Renilla control light, replicate 1 | Renilla control light, replicate 2 | activity call
cnk (GeneID 36952) | DRSC07595 | 9927 | – | 2801 | – | inactive
Cln3 (GeneID 39981) | DRSC10520 | 5536 | – | 2341 | – | inactive
yellow-d (GeneID 37703) | DRSC04589 | 3404 | 6332 | 800 | 3178 | inactive
c12.2 (GeneID 53434) | DRSC18751 | 12492 | – | 6427 | – | inactive
CG12730 (GeneID 31466) | DRSC17885 | 20564 | – | 9748 | – | inactive
CG31097 (GeneID 43058) | DRSC14666 | 21532 | – | 15133 | – | inactive
Mo25 (GeneID 39858) | DRSC11224 | 4388 | – | 1547 | – | inactive
CG32181 (GeneID 317897) | DRSC22635 | 7.93e5 | 7.56e5 | 3.50e5 | 1.01e5 | inactive
asRNA:CR31514 + CG12947 | DRSC14575 | 15876 | – | 3191 | – | inactive
Or85b (GeneID 41007) | DRSC16765 | 15089 | – | 4243 | – | inactive
dl (GeneID 35047) | DRSC03520 | 11186 | – | 2738 | – | inactive
dl (GeneID 35047) | DRSC03521 | 3021 | 6534 | 1149 | 3443 | inactive
mRpS10 (GeneID 41838) | DRSC15557 | 18012 | – | 4212 | – | inactive
CG43074 (GeneID 12798579) | DRSC08044 | 2237 | – | 1388 | – | inactive
CG9692 (GeneID 39865) | DRSC11091 | 8309 | – | 2967 | – | inactive
mys (GeneID 44885) | DRSC18799 | 11792 | – | 6953 | – | inactive
Ran-like (GeneID 39666) | DRSC10918 | 5604 | – | 1840 | – | inactive
ATPsyngamma (GeneID 43507) | DRSC14094 | 5622 | – | 1817 | – | inactive
CG12680 (GeneID 31427) | DRSC17871 | 17412 | – | 7824 | – | inactive
CG13002 (GeneID 32681) | DRSC19521 | 20786 | – | 8994 | – | inactive
CG13001 (GeneID 32684) | DRSC19520 | 31208 | – | 16650 | – | inactive
CG13001 (GeneID 32684) | DRSC22443 | 7.07e5 | 7.07e5 | 2.41e5 | 66673 | inactive
Poxm (GeneID 40990) | DRSC16793 | 19398 | – | 6208 | – | inactive
Poxm (GeneID 40990) | DRSC22839 | 6.66e5 | 6.43e5 | 2.79e5 | 3.37e5 | inactive
CG11700 (GeneID 31564) | DRSC17794 | 5509 | – | 2101 | – | inactive
CG14739 (GeneID 41467) | DRSC14959 | 20612 | – | 6342 | – | inactive
CG31099 (GeneID 326117) | DRSC14252 | 13036 | – | 10333 | – | inactive
Orc6 (GeneID 36017) | DRSC07497 | 2801 | 9104 | 900 | 3025 | inactive
CG4287 (GeneID 41939) | DRSC15559 | 1831 | 5588 | 501 | 2170 | inactive
Dronc (GeneID 39173) | DRSC11231 | 7683 | – | 2027 | – | inactive
Act88F (GeneID 41885) | DRSC14105 | 14434 | – | 4027 | – | inactive
CG12106 (GeneID 31856) | DRSC17805 | 3184 | 3272 | 908 | 1412 | inactive
Tie (GeneID 38559) | DRSC08104 | 3020 | – | 1347 | – | inactive
Tie (GeneID 38559) | DRSC08702 | 1859 | 6841 | 997 | 3120 | inactive
Or7a (GeneID 31750) | DRSC18691 | 18532 | – | 10000 | – | inactive
CG4854 (GeneID 42391) | DRSC15663 | 15268 | – | 4240 | – | inactive
CG3270 (GeneID 35575) | DRSC04988 | 10560 | – | 3356 | – | inactive
Cyp313a4 (GeneID 41563) | DRSC16627 | 12240 | – | 2801 | – | inactive
Or30a (GeneID 34236) | DRSC03385 | 2684 | 6948 | 968 | 3261 | inactive
CG15312 (GeneID 31940) | DRSC18000 | 2204 | 5157 | 640 | 1531 | inactive
Ant2 (GeneID 32008) | DRSC19330 | 3452 | 6610 | 1217 | 2232 | inactive
GC1 (GeneID 41448) | DRSC15322 | 15681 | – | 5209 | – | inactive
fs(1)M3 (GeneID 45994) | DRSC18381 | 2551 | 7801 | 877 | 2870 | inactive
CG17380 (GeneID 42766) | DRSC15230 | 17776 | – | 14390 | – | inactive
CG10073 (GeneID 37225) | DRSC05961 | 6117 | – | 2109 | – | inactive
Pa1 (GeneID 32079) | DRSC19422 | 16057 | – | 7015 | – | inactive
CR43670 + grp + CR43671 + 1 more | DRSC03541 | 6873 | – | 752 | – | inactive
ND-MLRQ (GeneID 317928) | DRSC11913 | 3815 | – | 1817 | – | inactive
l(2)34Fc (GeneID 34838) | DRSC01910 | 3235 | 6212 | 1283 | 2678 | inactive
CG12746 (GeneID 40672) | DRSC12218 | 8396 | – | 2663 | – | inactive
CG6984 (GeneID 36926) | DRSC07013 | 13489 | – | 4272 | – | inactive
Dci (GeneID 38100) | DRSC08360 | 3287 | – | 933 | – | inactive
CG13590 (GeneID 37907) | DRSC04226 | 4519 | 8933 | 1457 | 4016 | inactive
Kap-alpha1 (GeneID 40160) | DRSC11356 | 24018 | – | 5127 | – | inactive
Sur (GeneID 34350) | DRSC03447 | 6739 | – | 1805 | – | inactive
Mayo (GeneID 43678) | DRSC14300 | 8006 | – | 2822 | – | inactive
Cby (GeneID 42574) | DRSC14591 | 37417 | – | 7093 | – | inactive
Aldh (GeneID 34256) | DRSC02717 | 1478 | 5418 | 963 | 2939 | inactive
CG10916 (GeneID 37081) | DRSC06012 | 15115 | – | 4233 | – | inactive
CG9667 (GeneID 40960) | DRSC16535 | 12762 | – | 3005 | – | inactive
lncRNA:CR43498 (GeneID 12797960) | DRSC17621 | 3841 | – | 1557 | – | inactive
CG43373 (GeneID 39835) | DRSC09869 | 6891 | – | 3804 | – | inactive
CG43373 (GeneID 39835) | DRSC09885 | 8516 | – | 3767 | – | inactive
Tdc2 (GeneID 246620) | DRSC04999 | 3144 | 5932 | 822 | 2104 | inactive
crm (GeneID 31268) | DRSC18754 | 3093 | 9692 | 1968 | 3157 | inactive
CG2076 (GeneID 32041) | DRSC19832 | 20866 | – | 10250 | – | inactive
CG3803 (GeneID 37809) | DRSC04420 | 3128 | 8072 | 722 | 2295 | inactive
Mes2 (GeneID 40514) | DRSC11593 | 3120 | – | 953 | – | inactive
Mes2 (GeneID 40514) | DRSC11632 | 4776 | – | 1649 | – | inactive
GABA-B-R2 (GeneID 42561) | DRSC14134 | 4541 | 10564 | 1586 | 3440 | inactive
Swim (GeneID 37537) | DRSC04334 | 5978 | – | 1876 | – | inactive
CG13492 (GeneID 37487) | DRSC04137 | 2140 | 7991 | 656 | 2694 | inactive
CG43064 (GeneID 12798207) | DRSC09133 | 2185 | – | 777 | – | inactive
CG10031 (GeneID 33594) | DRSC00286 | 3425 | 10349 | 1000 | 2666 | inactive
Mlc1 (GeneID 43323) | DRSC16740 | 10994 | – | 2979 | – | inactive
mon2 (GeneID 326157) | DRSC03112 | 2741 | 6627 | 1085 | 3195 | inactive
CG1544 (GeneID 43689) | DRSC15036 | 1872 | 4210 | 628 | 1911 | inactive
Odj (GeneID 42145) | DRSC16234 | 4021 | 6294 | 1911 | 2179 | inactive
CR18275 + CG13373 | DRSC17900 | 17316 | – | 12566 | – | inactive
CG7133 (GeneID 40449) | DRSC11798 | 7500 | – | 3216 | – | inactive
Coop (GeneID 35677) | DRSC06604 | 11721 | – | 4026 | – | inactive
pav (GeneID 38515) | DRSC08730 | 6480 | – | 2658 | – | inactive
Ppa (GeneID 37602) | DRSC04598 | 5031 | 9458 | 1265 | 2577 | inactive
adp (GeneID 37073) | DRSC06916 | 19068 | – | 4816 | – | inactive
Claspin (GeneID 326205) | DRSC08308 | 4880 | – | 1472 | – | inactive
CG34355 (GeneID 42820) | DRSC13639 | 5057 | – | 2203 | – | inactive
CG34355 (GeneID 42820) | DRSC14520 | 18726 | – | 15529 | – | inactive
CG34355 (GeneID 42820) | DRSC14668 | 19498 | – | 16969 | – | inactive
CG34355 (GeneID 42820) | DRSC21687 | 7.36e5 | 6.88e5 | 3.61e5 | 2.92e5 | inactive
CG9483 (GeneID 34209) | DRSC03226 | 13815 | – | 3700 | – | inactive
Actn (GeneID 31166) | DRSC17724 | 2194 | 7034 | 784 | 1805 | inactive
salm (GeneID 34569) | DRSC03606 | 2992 | 6171 | 812 | 3846 | inactive
CG3511 (GeneID 37926) | DRSC04382 | 12281 | – | 3320 | – | inactive
